According to publication PMC10163288:
This is one part of the list.

B1: il2ra_site2_2erj_sap_19_mot_HHH_b2_07898_000000271_0001_1_14_H_._HHH_b1_07400_0001_0000200010_0000001_0_0001 (protein)
chain: SSSSSDEELRELYELAVELLRLLAEGDEEKVKELLERLEELAERLGSDNAKELVEIARKRISSSS
B2: il2ra_site2_2erj_sap_27_mot_HHH_b1_02968_000000142_0001_22_39_H_._HHH_b1_05540_0001_0000200016_0000001_0_0001 (protein)
chain: SSSSDEWLRELYELANRVTHLLAKGNPEEAREVAEEALELAEENDSRNAHEILRFLLEQLSSSSS
B3: il2ra_site1_2b5i_sap_10_mot_2cbe48e66a1f39b3fed734b245ab0a04_0001_000000015_0001_17_31_H_._HHH_b1_04625_0001_0000100002_0000001_0_0001_af2pred_dldesign_0_af2pre … (protein)
chain: SSSSDELYEEIERLYKEALELYKAGKREEAKEVLEKALELAEKAKDEKIIAELKRLLELLSSSSS
B4: il2ra_site1_3nfp_sap_7_mot_HHH_b2_00594_af2_000000186_0001_1_15_H_._HHH_b1_02490_0001_0001200022_0000001_0_0001_af2pred_0001_af2pred (protein)
chain: SSSSNRVELLHEAAERLFELLEEGDEEEAERLLEEVARELRELGSEKAARSLERAFEIFLKSSSS
B5: il2ra_site2_3nfp_normal_mot_HHH_b2_04451_000000238_0001_21_37_H_._HHH_b1_07886_af2_0001_0001100043_0000001_0 (protein)
chain: SSSSSSEEVEELLQEARELLEEGDPYEALEVLLKASKIAAELGDEELARKVLKLFELIQRSSSSS
B6: il2ra_site2_2erj_normal_mot_HHH_b1_02968_000000142_0001_22_39_H_._HHH_b1_07717_0001_0000300013_0000001_0 (protein)
chain: SSSSSDEEEYRERVEELLEEAKHIEDLREAYKLAARALRLASEADDPELQRLVQKVVEELSSSSS
B7: il2ra_site2_2erj_sap_22_mot_HHH_b2_00138_000000178_0001_20_37_H_._HHH_b2_06234_af2_0001_0000100003_0000001_0_0001_af2pred_0001_1_af2pred_swapped (protein)
chain: SSSSSESEERARELAEEVNKLLANGDPEEAEEVLKELEELAEELNDNTARILLELLRRWLSSSSS
B8: il2ra_site1_1z92_normal_mot_HHH_b2_07758_000000290_0001_1_17_H_._HHH_b1_04987_af2_0001_0000200015_0000001_0_af2pred_0001_af2pred (protein)
chain: SSSSSSNKLLKVAIEIAIKQAGLSEEDKEKLEELLEELEERGIDLLEISRELDKLALELSSSSSS
B9: il2ra_site1_1z92_sap_13_mot_HHH_b1_03619_000000222_0001_22_39_H_._HHH_b1_03386_0001_0000500018_0000001_0_0001_af2pred_0001_af2pred (protein)
chain: SSSSDERLELQAENIVRLVVRTAGLSEEDREELEEIAEELLKEGVDYREVAQIIEELALRLSSSS
B10: il2ra_site2_2erj_normal_mot_ef9cab360851164f21447f5d7f54bf9c_0001_1_000000008_0001_32_48_H_._HHH_b1_06039_af2_0001_0000200010_0000001_0 (protein)
chain: SSSSDELEELFRALSKLLHLIYRGDEEEFEELLREIKELAEELDSENVKEIVEFLERHFHSSSSS
B11: il2ra_site2_3nfp_normal_mot_HHH_b2_01155_000000159_0001_38_52_H_._HHH_b2_01829_0001_0000100005_0000001_0 (protein)
chain: SSSSSDEEERRVEELLEEAKRIEDEEEARELLAEALHLAYENRDSELFMLVAEVAFELLQSSSSS
B12: il2ra_site1_1z92_normal_mot_HHH_b1_03465_af2_000000044_0001_40_52_H_._HHH_b1_04869_af2_0001_0000300022_0000001_0 (protein)
chain: SSSSSDEEHERIEELFREAARIPDPEEARKVIEEALELAEELGSEELARDLREFLERLNSSSSSS
B13: il2ra_site2_2erj_sap_28_mot_b7929789c52af68ead34d201ecbf2d56_0001_1_000000071_0001_19_33_H_._HHH_b2_00937_af2_0001_0000100003_0000001_0_0001 (protein)
chain: SSSSNEELRELFKLAVELMRLTEEGDEEEFEKLWEKAEKLAEKLQSDNVKEILERLEKNVSSSSS
B14: il2ra_site2_2erj_normal_mot_HHH_b2_03913_af2_000000182_0001_1_19_H_._HHH_b2_00910_af2_0001_0000500011_0000001_0 (protein)
chain: SSSDQEAAELAAEAWREAAKLFRNGNPEEAKEVLQEYAELVKELGDEEALEAIERALKFLNSSSS
B15: il2ra_site2_2erj_normal_mot_HHH_b2_02303_000000050_0001_43_56_H_._HHH_b1_01446_0001_0000700019_0000001_1 (protein)
chain: SSSSSDVEEEVLELIAEAAHIKDPEEVRRLLEEALELAEENNDELLRRYVELSLRLAERSSSSSS
B16: il2ra_site2_3nfp_sap_15_mot_HHH_b1_08498_000000146_0001_21_37_H_._HHH_b1_04072_0001_0000600014_0000001_0_0001 (protein)
chain: DEEKELEKKAREAVEKNDPELALRVVDAAAQNPEAWEELIRVLRELDNLLRLYELAVRAYRKKRS
B17: il2ra_site1_2b5i_sap_12_mot_HHH_b1_05927_af2_000000070_0001_1_20_H_._HHH_b1_04668_0001_0000300014_0000001_0_0001_af2pred_dldesign_0_af2pred (protein)
chain: SSSSSSRRELLELAEKALKKLGAANKDEEYDELEALYEEYLRTRDPALAERLKEKSEKLLSSSSS
B18: il2ra_site1_3nfp_normal_mot_HHH_b1_08036_000000035_0001_1_19_H_._HHH_b2_05909_af2_0001_0000100003_0000001_0 (protein)
chain: SSSSSEYEEEVRELLEEAKEADERGDYERVKELLQKALELAKKNRDPELFRLIFEALRRFSSSSS

Each binder was assayed against il2ra, P01589 (assay: yeast display titration).

Row | Binder | apparent Kd
1 | B1 | inactive: no binding seen
2 | B2 | inactive: no binding seen
3 | B3 | inactive: no binding seen
4 | B4 | inactive: no binding seen
5 | B5 | inactive: no binding seen
6 | B6 | inactive: no binding seen
7 | B7 | inactive: no binding seen
8 | B8 | inactive: no binding seen
9 | B9 | inactive: no binding seen
10 | B10 | inactive: no binding seen
11 | B11 | inactive: no binding seen
12 | B12 | inactive: no binding seen
13 | B13 | inactive: no binding seen
14 | B14 | inactive: no binding seen
15 | B15 | inactive: no binding seen
16 | B16 | inactive: no binding seen
17 | B17 | inactive: no binding seen
18 | B18 | inactive: no binding seen

Taken from above.
B7 | apparent Kd: inactive: no binding seen
B17 | apparent Kd: inactive: no binding seen
